Values from PubChem BioAssay AID686943 (Drosophila RNAi Screening Center, 2013)
In all, the deposit lists about 23,000 reagents; shown is an unselected part of those that have a named target and a result. 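Extra replicates exist only for a retested subset of genes; insulin dose and duration not given; both raised and lowered dpERK matter.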 Reagents against one gene are numbered here. A plus sign joins genes that one reagent is predicted to hit. Not all columns of the deposit are shown. Not stated in the record: the amount of reagent, the time to read-out.

- Test: 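Search across the genome for regulators of signalling from receptor tyrosine kinase to ERK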 (primary screen)
- Cell system: Drosophila S2R+ haemocyte-like cells expressing YFP-tagged ERK (Rolled)
- Knock-down reagent: long dsRNA against Drosophila genes
- Conditions: insulin stimulation versus unstimulated cells; dose and duration not given
- Measurement: 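Per-plate z-scores of phospho-ERK immunostaining normalised to YFP-tagged ERK, measured with and without insulin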
- Scale: replicate 1, z-score of dpERK with insulin: higher = more active ERK per ERK-YFP after insulin

EbpII (GeneID 326108) #1 gave replicate 1, z-score of dpERK with insulin 0.32.
EbpII (GeneID 326108) #2 gave replicate 1, z-score of dpERK with insulin -0.37.
Silencing of CG7382 (GeneID 33772) gave: replicate 1, z-score of dpERK with insulin -0.43.
Silencing of CG12483 (GeneID 50161) resulted in: replicate 1, z-score of dpERK with insulin -0.32.
Silencing of sima (GeneID 43580) came out at: replicate 1, z-score of dpERK with insulin 0.59.
CG32269 + CG32270 gave replicate 1, z-score of dpERK with insulin 0.09.
fus (GeneID 44095) #1 showed replicate 1, z-score of dpERK with insulin 1.7.
Depletion of fus (GeneID 44095) #2 came out at: replicate 1, z-score of dpERK with insulin -0.33.

Already shown: 2 of the entries above.
EbpII (GeneID 326108) #2: replicate 1, z-score of dpERK with insulin = -0.37
CG7382 (GeneID 33772): replicate 1, z-score of dpERK with insulin = -0.43

Further results follow:
Against beg (GeneID 39910), the entry reads replicate 1, z-score of dpERK with insulin -0.12.
amx (GeneID 43869) showed replicate 1, z-score of dpERK with insulin -0.59.
CG18659 (GeneID 35929) showed replicate 1, z-score of dpERK with insulin 0.02.
With knock-down of FMRFaR (GeneID 38357), the screen gave replicate 1, z-score of dpERK with insulin 0.55.
